Measurements reported in PubChem BioAssay AID1159584 (Peter MacCallum Cancer Centre, 2016).
The deposit covers about 18,000 reagents; this is a random part of them. The record does not give: the amount of reagent, the time to read-out.

Assay: 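Genes that CDH1-null MCF10A cells selectively depend on to survive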 (primary screen)
Cell system: human MCF10A breast epithelial cells, parental and CDH1-null
Knock-down reagent: siRNA against human genes
Measured: 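ATP luminescence (CellTiter-Glo) viability per line relative to mean mock wells over all plates, and the ratio of CDH1-null to parental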
Scale: CDH1-null / parental viability ratio: higher = CDH1-null cells survive relatively better than parental; CDH1-null viability vs mock: higher = more viable CDH1-null cells; parental viability vs mock: higher = more viable parental cells

The first 2 records, ahead of the listing:
no.	gene	CDH1-null / parental viability ratio	CDH1-null viability vs mock (fraction of mock)	parental viability vs mock (fraction of mock)
1	PTCH1	1.07	0.86	0.8
2	ASZ1	0.75	0.58	0.77

The list itself, from the first entry:
no.	gene	CDH1-null / parental viability ratio	CDH1-null viability vs mock (fraction of mock)	parental viability vs mock (fraction of mock)
1	PTCH1	1.07	0.86	0.8
2	ASZ1	0.75	0.58	0.77
3	CEP162	0.96	0.88	0.92
4	PRR3	1.08	0.93	0.86
5	RINL	0.94	0.34	0.36
6	CD276	0.98	0.52	0.53
7	MGAT3	1	0.72	0.72
8	CAD	0.84	0.74	0.88
9	CCRL2	0.83	0.74	0.89
10	GDI2	0.95	0.86	0.91
11	COXFA4L2	1.01	0.95	0.94
12	ZNF781	0.98	0.92	0.94
13	SRSF11	1.4	0.77	0.55
14	ADSL	1.19	1.07	0.9
15	HEATR4	0.84	0.72	0.86
16	LRRTM2	1.08	0.8	0.74
17	CYB561A3	2	0.6	0.3
18	FAM187B	0.92	1.08	1.17
19	C10orf71	0.95	0.72	0.76
20	EMILIN1	0.71	0.34	0.48
21	IQGAP2	1.13	1.15	1.02
22	ZNF488	1.29	0.9	0.7
23	ERCC6L	0.82	0.77	0.94
24	LMO1	0.94	1	1.06
25	LRRC63	0.88	0.95	1.08
26	CABP7	0.72	0.63	0.88
27	CIAO2B	1.01	0.81	0.8
28	UGT1A4	0.89	0.76	0.85
